In PMC4238977 one finds binding data, which are given here for three molecules.

Assay [1] concerns the target T1, Bam (yeast 2-hybrid fusion) (Drosophila) (UniProt P22745).
T1 sequence: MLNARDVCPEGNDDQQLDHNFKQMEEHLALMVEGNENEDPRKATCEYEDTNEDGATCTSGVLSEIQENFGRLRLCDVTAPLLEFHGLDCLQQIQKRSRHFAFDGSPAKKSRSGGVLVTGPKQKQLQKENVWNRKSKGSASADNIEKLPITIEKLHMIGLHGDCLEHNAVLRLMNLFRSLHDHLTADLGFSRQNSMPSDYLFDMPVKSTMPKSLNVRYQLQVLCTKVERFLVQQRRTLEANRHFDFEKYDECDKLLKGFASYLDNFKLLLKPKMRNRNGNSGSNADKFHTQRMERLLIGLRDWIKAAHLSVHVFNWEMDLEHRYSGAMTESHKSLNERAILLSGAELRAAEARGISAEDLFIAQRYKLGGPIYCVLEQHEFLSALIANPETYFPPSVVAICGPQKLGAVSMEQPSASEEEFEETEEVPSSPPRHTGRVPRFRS
Put plainly: two-hybrid; yeast 2-hybrid; growth on SD/-Ade/-His/-Leu/-Trp with Aureobasidin A and X-alpha-Gal (QDO/X/A); SD/-Leu/-Trp (DDO) as control of transformation.

For assay [2], the target named is T2, Bgcn (yeast 2-hybrid fusion) (Drosophila) (UniProt Q9W1I2).
T2 sequence: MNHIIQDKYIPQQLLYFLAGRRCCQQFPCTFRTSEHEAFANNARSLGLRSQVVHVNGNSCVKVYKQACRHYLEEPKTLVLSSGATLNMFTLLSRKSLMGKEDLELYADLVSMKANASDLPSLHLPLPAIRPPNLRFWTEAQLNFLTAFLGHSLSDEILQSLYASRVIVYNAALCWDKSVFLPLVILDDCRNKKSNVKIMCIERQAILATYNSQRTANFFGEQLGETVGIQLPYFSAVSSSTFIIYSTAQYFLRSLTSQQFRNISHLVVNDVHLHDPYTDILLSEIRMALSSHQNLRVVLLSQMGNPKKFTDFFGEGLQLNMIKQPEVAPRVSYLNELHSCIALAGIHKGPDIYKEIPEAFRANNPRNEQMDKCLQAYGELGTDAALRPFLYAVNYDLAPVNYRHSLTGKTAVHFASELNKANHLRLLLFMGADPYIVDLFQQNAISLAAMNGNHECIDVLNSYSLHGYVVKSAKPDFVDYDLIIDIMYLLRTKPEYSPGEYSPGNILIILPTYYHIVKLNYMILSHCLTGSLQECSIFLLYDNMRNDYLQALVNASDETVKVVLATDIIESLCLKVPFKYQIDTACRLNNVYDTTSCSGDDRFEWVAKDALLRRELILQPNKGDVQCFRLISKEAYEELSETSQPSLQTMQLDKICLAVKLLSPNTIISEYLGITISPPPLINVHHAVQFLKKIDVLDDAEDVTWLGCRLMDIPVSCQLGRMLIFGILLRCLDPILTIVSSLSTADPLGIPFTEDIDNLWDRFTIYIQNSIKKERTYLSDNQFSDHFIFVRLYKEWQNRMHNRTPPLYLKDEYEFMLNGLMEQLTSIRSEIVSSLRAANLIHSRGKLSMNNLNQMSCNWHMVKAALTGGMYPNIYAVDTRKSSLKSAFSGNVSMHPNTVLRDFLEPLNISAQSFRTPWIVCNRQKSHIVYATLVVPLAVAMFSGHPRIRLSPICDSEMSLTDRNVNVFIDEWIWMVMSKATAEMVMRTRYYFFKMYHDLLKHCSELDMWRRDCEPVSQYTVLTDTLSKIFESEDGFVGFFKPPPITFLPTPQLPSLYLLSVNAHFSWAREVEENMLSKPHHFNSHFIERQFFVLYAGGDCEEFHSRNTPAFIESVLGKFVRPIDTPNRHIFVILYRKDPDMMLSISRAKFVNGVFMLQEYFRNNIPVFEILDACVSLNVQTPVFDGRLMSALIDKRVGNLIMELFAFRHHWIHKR
The assay is described as above.

The target of assay [3] is T3, Fragment containing N-terminal 100 amino acids of Bam, fused with BD (Drosophila) (UniProt P22745).
T3 sequence: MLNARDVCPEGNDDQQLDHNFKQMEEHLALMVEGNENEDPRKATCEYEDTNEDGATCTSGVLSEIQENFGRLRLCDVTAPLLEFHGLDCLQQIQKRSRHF
Described as above.

For assay [4], the target named is T4, Bam N-terminal fragment (Flag- or HA-tagged, S2 cells, Figure 5C-F) (Drosophila) (UniProt P22745).
T4 sequence: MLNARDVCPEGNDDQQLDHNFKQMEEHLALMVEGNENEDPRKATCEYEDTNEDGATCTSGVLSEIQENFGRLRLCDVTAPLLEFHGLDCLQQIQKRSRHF
Put plainly: co-IP; S2 cells transfected with Flag- or HA-tagged constructs; lysates immunoprecipitated with anti-HA beads; Western blot. (A western blot detects proteins with antibodies after separation by electrophoresis.)

The target in a further assay is T5, Flag-Bam (Drosophila) (UniProt P22745).
T5 sequence: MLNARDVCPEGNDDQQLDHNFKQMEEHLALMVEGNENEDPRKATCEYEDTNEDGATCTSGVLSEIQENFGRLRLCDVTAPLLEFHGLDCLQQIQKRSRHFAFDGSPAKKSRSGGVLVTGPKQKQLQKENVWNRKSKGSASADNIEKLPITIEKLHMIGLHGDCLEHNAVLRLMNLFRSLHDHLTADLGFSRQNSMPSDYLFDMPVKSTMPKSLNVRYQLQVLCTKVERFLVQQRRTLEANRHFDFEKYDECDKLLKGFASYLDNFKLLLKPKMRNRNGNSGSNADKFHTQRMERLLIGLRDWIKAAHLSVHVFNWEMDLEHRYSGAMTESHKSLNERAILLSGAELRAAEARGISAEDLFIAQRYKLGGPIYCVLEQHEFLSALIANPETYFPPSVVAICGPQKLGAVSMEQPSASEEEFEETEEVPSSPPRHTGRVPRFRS
Put plainly: co-IP; S2 cells over-expressing Flag-Bam and Myc-Tut; lysates immunoprecipitated with anti-Myc or anti-Flag beads, 4 h at 4°C, Western blot.

These are yes or no findings as the source states them, for the method shown. For some assays here: In cells and extracts the contact can be indirect. Some results given as binding are weak or reduced against the parent protein; the word gives no strength. Tags and fused reporters may be left off the sequences shown.

B1: AD-Tut (protein, UniProt Q8IQA2 1-230)
chain: MDFESKYCTSQVNGTITITTRKVLDENLKSLLDEGKGELFLSCIPRNHSCSPRWIVEVASELGEVYIMRYKIDFSGNSRGYAYLQYINVDLKESAMQYLPMRFRQLCMCLRVEPSTNNRELVLKNVESSLRPWQVYQEMLKIHPFTIVRVYEYQLDQFFYIFEYRNNDSAASAHQRVRNSIRKFGEHAHISWLTAENILSRASGSFCFQREVSQNRTRRVPPRQKGCFKF
With B1, the binding result in assay [1] is recorded as “binds”; in assay [2] it was “no binding”; in assay [3], “binds”.

B2: Tut (Flag- or HA-tagged, S2 cells, Figure 5C-F) (protein, UniProt Q8IQA2 1-230)
chain: MDFESKYCTSQVNGTITITTRKVLDENLKSLLDEGKGELFLSCIPRNHSCSPRWIVEVASELGEVYIMRYKIDFSGNSRGYAYLQYINVDLKESAMQYLPMRFRQLCMCLRVEPSTNNRELVLKNVESSLRPWQVYQEMLKIHPFTIVRVYEYQLDQFFYIFEYRNNDSAASAHQRVRNSIRKFGEHAHISWLTAENILSRASGSFCFQREVSQNRTRRVPPRQKGCFKF
Consider B2, for which the binding result in assay [4] was “binds”.

B3: Myc-Tut (protein, UniProt Q8IQA2 1-230)
chain: MDFESKYCTSQVNGTITITTRKVLDENLKSLLDEGKGELFLSCIPRNHSCSPRWIVEVASELGEVYIMRYKIDFSGNSRGYAYLQYINVDLKESAMQYLPMRFRQLCMCLRVEPSTNNRELVLKNVESSLRPWQVYQEMLKIHPFTIVRVYEYQLDQFFYIFEYRNNDSAASAHQRVRNSIRKFGEHAHISWLTAENILSRASGSFCFQREVSQNRTRRVPPRQKGCFKF
Turning to B3, the binding entry with Flag-Bam (Drosophila) is recorded as “binds”.
